Assay results as given in the supplement of paper PMC11732987, “Enantioselective OTUD7B fragment discovery through chemoproteomics screening and high-throughput optimisation” (Communications Chemistry, 2025).
The list shows a part of the results. The data scatter; read single values as rough.

Protein sequences, listed by entry. Tags and fused reporters are not part of them.
UniProt P54709, whole entry, looked up: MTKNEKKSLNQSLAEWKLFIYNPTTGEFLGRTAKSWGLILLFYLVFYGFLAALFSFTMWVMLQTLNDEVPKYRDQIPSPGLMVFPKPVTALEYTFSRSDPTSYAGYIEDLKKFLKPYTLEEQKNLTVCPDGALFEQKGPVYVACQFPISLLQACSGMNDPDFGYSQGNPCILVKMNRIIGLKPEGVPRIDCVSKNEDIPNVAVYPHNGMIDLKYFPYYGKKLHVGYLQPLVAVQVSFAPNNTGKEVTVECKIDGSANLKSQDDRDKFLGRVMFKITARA

Experiments:
Test in all cases: log2 mean competition ratio of IA-DTB cysteine labelling (DMSO/compound) (log2 ratio); higher = stronger cysteine engagement by compound
Conditions in all cases: treatment time: 4 h, cell line lysate: HEK293T
ATP1A1 C428 = ATP1A1 C428 (UniProt P05023)
Procedure: (§1)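 IA-DTB competitive cysteine chemoproteomics in HEK293T RIPA lysate. Lysates were treated with compound 29 or 30 at 50 or 200 µM for 4 h, then IA-DTB (500 µM, 1 h), trypsin-digested, NeutrAvidin-enriched and analysed by diaPASEF. Competition ratio = intensity DMSO / intensity compound (n=4 treated, n=64 DMSO); binding: mean log2 CR ≥ 1 and p ≤ 0.05 plus QC filters. Target is the cysteine site.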

ATP1A1 C518 = ATP1A1 C518 (UniProt P05023)
Procedure: as §1

ATP1A1 C663 = ATP1A1 C663 (UniProt P05023)
Procedure: as §1

ATP1A3 C221 = ATP1A3 C221 (UniProt P13637)
Procedure: as §1

ATP1A3 C449 = ATP1A3 C449 (UniProt P13637)
Procedure: as §1

ATP1A3 C49 = ATP1A3 C49 (UniProt P13637)
Procedure: as §1

ATP1A3 C508 = ATP1A3 C508 (UniProt P13637)
Procedure: as §1

ATP1B1 C213 = ATP1B1 C213 (UniProt P05026)
Procedure: as §1

ATP1B3 C250 = ATP1B3 C250 (UniProt P54709)
Procedure: as §1

Structure (SMILES) | log2 mean competition ratio (ATP1A1 C428; 50 µM) | log2 mean competition ratio (ATP1A1 C428; 200 µM) | log2 mean competition ratio (ATP1A1 C518; 50 µM) | log2 mean competition ratio (ATP1A1 C518; 200 µM) | log2 mean competition ratio (ATP1A1 C663; 50 µM) | log2 mean competition ratio (ATP1A1 C663; 200 µM) | log2 mean competition ratio (ATP1A3 C221; 50 µM) | log2 mean competition ratio (ATP1A3 C221; 200 µM) | log2 mean competition ratio (ATP1A3 C449; 50 µM) | log2 mean competition ratio (ATP1A3 C449; 200 µM) | log2 mean competition ratio (ATP1A3 C49; 50 µM) | log2 mean competition ratio (ATP1A3 C49; 200 µM) | log2 mean competition ratio (ATP1A3 C508; 50 µM) | log2 mean competition ratio (ATP1A3 C508; 200 µM) | log2 mean competition ratio (ATP1B1 C213; 50 µM) | log2 mean competition ratio (ATP1B1 C213; 200 µM) | log2 mean competition ratio (ATP1B3 C250; 50 µM) | log2 mean competition ratio (ATP1B3 C250; 200 µM)
O=C(CCl)N[C@H]1CCCc2ccccc21 | -0.0561 | 0.0751 | 0.303 | -0.152 | 0.268 | -0.328 | -0.727 | -0.198 | -0.0698 | 0.0901 | -0.0887 | -0.0405 | 0.407 | 0.0186 | 0.425 | 0.0283 | -0.176 | 0.225
O=C(CCl)N[C@@H]1CCCc2ccccc21 | -0.229 | 0.0137 | -0.0286 | 0.0601 | 0.0763 | -0.435 | -0.467 | -0.141 | -0.214 | -0.0264 | 0.343 | 0.0822 | 0.256 | -0.191 | -0.304 | -0.154 | -0.188 | 0.13
